The whole screen tested about 400,000 compounds, of which about 5,500 (1.4%) were called active. The inconclusive results got no clear call from the source; some entries with a clear call stand among them for comparison. The call rests on the fitted dose curve; in most records, active means well fitted cell-killing curve with a large enough effect; inconclusive means small, poorly fitted or top-dose-only effect, or effect the other way; inactive means flat fitted curve, though single readings scatter. Potencies of inconclusive entries are doubtful fits and often do not repeat.
test: qHTS assay for MDR1-selective chemotherapeutics: Primary screen using the parental adenocarcinoma cell KB-3-1; details: KB-3-1 viability, CellTiter-Glo ATP luminescence, 72 h; activity change, negative = cytotoxic: at 46.1 µM (top of the series); further: nearly all actives have a fitted effect of over 60% in size
Method in brief: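 KB-3-1 parental drug-naive adenocarcinoma cells in DMEM/10% FBS, incubated 72 h at 37 C with pin-transferred compounds across a concentration series. Viability by CellTiter-Glo luminescence; concentration-response curves fitted after normalization.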
On the % scale 0 is the no-effect control and ±100 the full control effect; potency means the concentration at half of the fitted maximal effect.

SMILES | activity change, negative = cytotoxic | Potency
COc1ccc(C)cc1S(=O)(=O)N(CC(=O)NCc1ccc(Cl)cc1)Cc1ccccc1 | inactive: 2.88% | 
CC1(C)Cc2c(c(N3CCOCC3)nc3sc4c(NN)ncnc4c23)CS1 |  | inconclusive: 29.1 µM [cytotoxic, single point]
CCOc1ccc(-n2c(O)c(/C=N/Nc3nc(C)cc(C)n3)c3ccccc3c2=O)cc1 |  | active: 20.6 µM
COc1ccc(-c2cc(C)no2)cc1S(=O)(=O)Nc1ccc(NC(C)=O)cc1 |  | inconclusive: 32.6 µM [cytotoxic, single point]
Brc1ccccc1-c1nnc(COc2ncnc3c2cnn3-c2ccccc2)o1 |  | inconclusive: 20.6 µM [cytotoxic, single point]
Cc1ccc(C)c(N2CCN(C(=O)C3CCN(Cc4nc(-c5cccc(Cl)c5)oc4C)CC3)CC2)c1 |  | inconclusive: 9.2 µM [cytotoxic, partial curve]
O=C(NCc1ccccc1)C1(CC2CC(c3ccccc3)=NO2)CCNCC1 (stereo not given) |  | inconclusive: 7.31 µM [cytotoxic, partial curve]
Cc1ccc(C(=O)Nc2ccc(N3CCOCC3)cc2)cc1S(=O)(=O)N1CCCCC1 |  | inconclusive: 32.6 µM [cytotoxic, partial curve, poor fit]
CC(C)CC1C(=O)N(Cc2cn(CCC3OCCO3)nn2)CCS(=O)(=O)N1Cc1ccc(-c2cccc(CO)c2)cc1 (stereo not given) | inactive: -8.64% | 
CCOc1ccc2c(c1)nc(SCC(=O)c1ccc(Br)s1)n2C |  | inconclusive: 29.1 µM [cytotoxic, single point]
COc1ccc(CCCNC(=O)C2Cc3c(-c4cccc(NC(C)=O)c4)ccnc3O2)cc1 (stereo not given) |  | active: 6.51 µM
CCOC(=O)[C@H]1[C@H]2COc3ccc(Br)cc3[C@H]2N2C(=O)CN(CCc3c[nH]c4ccccc34)C(=O)[C@@]12C |  | inconclusive: 29.1 µM [cytotoxic, single point]
CC(=O)c1cccc(-c2ccnc3c2CC(C(=O)NCc2ccco2)O3)c1 (stereo not given) |  | active: 1.16 µM
CN1C2CCC1CC(OC(c1ccccc1)c1ccccc1)C2 (stereo not given) |  | inconclusive: 5.17 µM [cytotoxic, partial curve, poor fit]
COc1ccc(Br)cc1CN1CCCC(C(=O)N2CCCCCC2)C1 (stereo not given) |  | inconclusive: 29.1 µM [cytotoxic, single point]
O=S(=O)(Nc1nc2ccccc2nc1-[n+]1cccc(N=C([O-])c2ccc(Cl)cc2)c1)c1ccccc1 | inactive: 0.465% | 
Cc1ccn2c(=O)nc(SCC(=O)N3CCCCCC3)nc2c1 |  | inconclusive: 29.1 µM [rising, single point]
COc1ccccc1-c1nnc(NC(=O)c2ccc3c(c2)OCO3)s1 |  | active: 5.8 µM
COc1ccc(Cl)cc1C(=O)NNC(=S)NC(=O)c1ccc(F)c(F)c1 |  | inconclusive: 29.1 µM [cytotoxic, single point]
CCCCC1(C)NC(=S)N2N1C(=S)NC2(C)CCCC (stereo not given) |  | inconclusive: 1.84 µM [rising, full curve, poor fit]
CCN1CCN(CCCN(Cc2ccco2)C(=S)Nc2ccccc2Cl)CC1 |  | inconclusive: 20.6 µM [rising, single point]
O=C(CN1CCN(S(=O)(=O)c2cc(Cl)ccc2Cl)CC1)Nc1ccc2c(c1)OCCO2 |  | inconclusive: 14.6 µM [cytotoxic, partial curve]

SMILES | activity change, negative = cytotoxic | Potency
Cc1cccn2c(CN(C)CC3Cc4ccccc4O3)c(C(=O)N3CCCCC3)nc12 (stereo not given) |  | inconclusive: 0.206 µM [rising, full curve]
CN1CC[C@H](CN2c3ccccc3Sc3ccccc32)C1 |  | inconclusive: 29.1 µM [cytotoxic, single point]
COc1c(C)cc(Br)cc1C(=O)Nc1ccc(C)cc1[N+](=O)[O-] | inactive: -5.28% | 
C=CCSc1nc(Cc2ccc(Cl)cc2)nc2ccccc12 |  | inconclusive: 0.164 µM [cytotoxic, full curve]
CCOc1ccc(C(C)NC(=S)NCc2ccc(Cl)cc2)cc1 (stereo not given) |  | inconclusive: 25.9 µM [cytotoxic, single point]
CC1(C)Cc2nc3oc4c(SCC(N)=O)ncnc4c3cc2CO1 |  | inconclusive: 0.731 µM [rising, partial curve, poor fit]
CCNC(=O)C1(C)CCCN1C(=O)c1ccc2c(c1)OCO2 (stereo not given) | inactive: 0% | 
Cc1ccc(NCc2nc3ccccc3n2CCOc2ccccc2C)cc1 |  | inconclusive: 18.4 µM [cytotoxic, single point]
COc1ccc(CN(C)c2ncnc3sccc23)c(OC)c1OC |  | active: 8.2 µM
Nc1c(C(=O)Nc2ccccc2Cl)nnn1Cc1cccc(Cl)c1 | inactive: -0.0977% | 
COc1ccc(S(=O)(=O)Nc2c(C(=O)O)[nH]c3ccc(OC)cc23)cc1 | inactive: 6.49% | 
N#C/C(=C\c1ccc(OCc2ccc(C(=O)O)cc2)cc1)C(=O)N1CCOCC1 |  | inconclusive: 20.6 µM [cytotoxic, single point]
O=C(NC(Cc1ccccc1)C(=O)O)/C(=C/c1cccc([N+](=O)[O-])c1)NC(=O)c1cccc(Br)c1 (stereo not given) | inactive: -4.28% | 
CCC(C)(C)C1CCC2(CC1)NC(=O)N(CC(=O)NCCc1ccc(OC)c(OC)c1)C2=O (stereo not given) |  | inconclusive: 20.6 µM [cytotoxic, single point]
COc1ccc(S(=O)(=O)N(C(=O)c2ccco2)c2cc3sc(=O)oc3c3ccccc23)cc1 |  | inconclusive: 23.1 µM [cytotoxic, single point]
O=C(OCCC12CC3CC(CC(C3)C1)C2)c1ccc(NCc2cc(O)ccc2O)cc1 |  | active: 14.6 µM
CCNc1nc2c(c(=O)n(C)c(=O)n2C)n1CC(O)COc1ccccc1 (stereo not given) |  | inconclusive: 6.51 µM [cytotoxic, partial curve, poor fit]
COc1ccc(-c2sc(Nc3ccccc3)n[n+]2-c2ccc(F)cc2)c(C)c1C | inactive: -18.9% | 
COc1cccc(-c2ccc3ncnc(NCc4cc(C)cs4)c3c2)c1 |  | inconclusive: 18.4 µM [cytotoxic, single point]
CCC(=O)Nc1sc(C(=O)Nc2ccccc2F)c(C)c1C(=O)OC |  | inconclusive: 20.6 µM [rising, single point]
CCCc1nn(C)c(C(=O)Nc2cccc3ccccc23)c1Cl |  | inconclusive: 29.1 µM [cytotoxic, single point]
Cc1sc2ncn(CC(=O)NCCCC(=O)Nc3ccc(C(C)C)cc3)c(=O)c2c1C |  | inconclusive: 29.1 µM [cytotoxic, single point]

SMILES | activity change, negative = cytotoxic | Potency
Cc1cccc(C)c1NC(=O)CCc1nnc2ccc(N3CCCC3)nn12 |  | inconclusive: 5.8 µM [rising, partial curve, poor fit]
COc1ccc(C(=O)/C=C/C(=O)N(Cc2ccc3c(c2)OCO3)C(C(=O)NC2CCCCC2)c2ccncc2)c(O)c1 (stereo not given) |  | inconclusive: 29.1 µM [cytotoxic, single point]
COc1ccc(NCc2nc3ccccc3n2CCOc2ccc(C)cc2)cc1 |  | inconclusive: 29.1 µM [cytotoxic, single point]
Cc1ccc([C@H]2C[C@@H](n3cc(C4CC4)nn3)[C@H](O)CN2CC2CCCCC2)cc1 |  | active: 20.6 µM
O=C(Nc1ccc(F)c([N+](=O)[O-])c1)C(=O)c1c(O)[nH]c2ccccc12 | inactive: 0.169% | 
O=C(Nc1nnc(SCC(=O)N2CCCC2)s1)C1CC(=O)N(c2ccccc2)C1 (stereo not given) | inactive: -1.36% | 
CC(=O)c1c(C)[nH]c(C(=O)COC(=O)C2(C)CC2(Cl)Cl)c1C (stereo not given) |  | inconclusive: 29.1 µM [cytotoxic, partial curve, poor fit]
CC(C)n1cc(NC(=O)c2cc(-c3ccccc3)on2)cn1 |  | inconclusive: 3.66 µM [cytotoxic, full curve, poor fit]
Nc1ccc(Oc2ccc3nc(-c4ccccc4)c(-c4ccccc4)nc3c2)cc1 |  | inconclusive: 29.1 µM [cytotoxic, single point]
CCCOc1ccc(C2C(C(=O)c3cc4ccccc4o3)=C(O)C(=O)N2c2cc(C)on2)cc1OC (stereo not given) | inactive: -7.41% | 
COC(=O)[C@@]12CCCCN1[C@H](c1ccc(-c3ccc(C(C)=O)cc3)cc1)[C@H]1C(=O)N(C)C(=O)[C@H]12 |  | inconclusive: 20.6 µM [cytotoxic, single point]
Cc1ccc(CNC(=O)C(=O)NCC2OCCCN2S(=O)(=O)c2ccc(F)cc2)cc1 (stereo not given) | inactive: 14.7% | 
CC1CCN(C(=O)Nc2cccc(NC(=O)N3CCC(C)CC3)c2)CC1 |  | inconclusive: 29.1 µM [cytotoxic, single point]
COc1ccccc1NC(=O)C1=C(C)NC2=C(C(=O)CC(c3ccc(OC)c(OC)c3)C2)C1c1coc2ccccc2c1=O (stereo not given) | inactive: -3.39% | 
COc1ccccc1N(C)S(=O)(=O)c1ccc(Cl)c(C(=O)NNC(=O)c2ccccc2O)c1 |  | inconclusive: 16.4 µM [cytotoxic, single point]
COc1ccc(NS(=O)(=O)c2ccc3ccccc3c2)c2ncccc12 |  | inconclusive: 20.6 µM [cytotoxic, partial curve, poor fit]
Cc1nn(C)c(C(=O)NC(=S)Nc2ccc([N+](=O)[O-])cc2)c1Cl |  | inconclusive: 18.4 µM [cytotoxic, single point]
Clc1ccccc1CN(Cc1ccco1)Cc1nnnn1C1CCCC1 |  | inconclusive: 29.1 µM [cytotoxic, single point]
Clc1ccc2c(c1)C(C1=NCCN1)c1ccccc1CS2 (stereo not given) |  | active: 0.92 µM
COc1ccc(-c2cc(-c3ccc(OC)c(OC)c3)n[nH]2)c(O)c1 |  | inconclusive: 32.6 µM [cytotoxic, single point]
COc1ccc(O)c(-c2nc(N)nc(N)n2)c1 |  | inconclusive: 16.4 µM [cytotoxic, single point]

Grouped by structure: the compounds so far containing a COOH group (3)
SMILES | activity change, negative = cytotoxic | Potency
COc1ccc(S(=O)(=O)Nc2c(C(=O)O)[nH]c3ccc(OC)cc23)cc1 | inactive: 6.49% | 
N#C/C(=C\c1ccc(OCc2ccc(C(=O)O)cc2)cc1)C(=O)N1CCOCC1 |  | inconclusive: 20.6 µM [cytotoxic, single point]
O=C(NC(Cc1ccccc1)C(=O)O)/C(=C/c1cccc([N+](=O)[O-])c1)NC(=O)c1cccc(Br)c1 (stereo not given) | inactive: -4.28% | 

Shown with tabs: entries from further up.
SMILES	activity change, negative = cytotoxic	Potency
CC(=O)c1c(C)[nH]c(C(=O)COC(=O)C2(C)CC2(Cl)Cl)c1C (stereo not given)		inconclusive: 29.1 µM [cytotoxic, partial curve, poor fit]
Cc1nn(C)c(C(=O)NC(=S)Nc2ccc([N+](=O)[O-])cc2)c1Cl		inconclusive: 18.4 µM [cytotoxic, single point]

Reference: PubChem BioAssay AID1347075 (National Center for Advancing Translational Sciences (NCATS), 2019)
